The list shows a part of the results.
compound: CC1Cc2ccccc2N1C(=O)C1CCCN(C1)C(=O)CCl (mixture of isomers) [TRIM25 ligand 11 (diastereomer mixture)]; assay: probe-labelled cysteine peptide fold change vs DMSO (competition) (log2 fold change); higher = less target engagement (more negative = stronger competition); conditions: 50 µM; THP-1; incubation time: 4 h
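Also: competitive chemoproteomic profiling in live THP-1 cells with an iodoacetamide desthiobiotin (IA-DTB) probe, comparing probe-labelled peptide intensities in compound-treated cells against DMSO-treated controls.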

Protein sequences, listed by entry. Tags and fused reporters are not part of them. Lines headed by an entry give the natural chain unless they say otherwise; changes in a name come on top.
UniProt P08575: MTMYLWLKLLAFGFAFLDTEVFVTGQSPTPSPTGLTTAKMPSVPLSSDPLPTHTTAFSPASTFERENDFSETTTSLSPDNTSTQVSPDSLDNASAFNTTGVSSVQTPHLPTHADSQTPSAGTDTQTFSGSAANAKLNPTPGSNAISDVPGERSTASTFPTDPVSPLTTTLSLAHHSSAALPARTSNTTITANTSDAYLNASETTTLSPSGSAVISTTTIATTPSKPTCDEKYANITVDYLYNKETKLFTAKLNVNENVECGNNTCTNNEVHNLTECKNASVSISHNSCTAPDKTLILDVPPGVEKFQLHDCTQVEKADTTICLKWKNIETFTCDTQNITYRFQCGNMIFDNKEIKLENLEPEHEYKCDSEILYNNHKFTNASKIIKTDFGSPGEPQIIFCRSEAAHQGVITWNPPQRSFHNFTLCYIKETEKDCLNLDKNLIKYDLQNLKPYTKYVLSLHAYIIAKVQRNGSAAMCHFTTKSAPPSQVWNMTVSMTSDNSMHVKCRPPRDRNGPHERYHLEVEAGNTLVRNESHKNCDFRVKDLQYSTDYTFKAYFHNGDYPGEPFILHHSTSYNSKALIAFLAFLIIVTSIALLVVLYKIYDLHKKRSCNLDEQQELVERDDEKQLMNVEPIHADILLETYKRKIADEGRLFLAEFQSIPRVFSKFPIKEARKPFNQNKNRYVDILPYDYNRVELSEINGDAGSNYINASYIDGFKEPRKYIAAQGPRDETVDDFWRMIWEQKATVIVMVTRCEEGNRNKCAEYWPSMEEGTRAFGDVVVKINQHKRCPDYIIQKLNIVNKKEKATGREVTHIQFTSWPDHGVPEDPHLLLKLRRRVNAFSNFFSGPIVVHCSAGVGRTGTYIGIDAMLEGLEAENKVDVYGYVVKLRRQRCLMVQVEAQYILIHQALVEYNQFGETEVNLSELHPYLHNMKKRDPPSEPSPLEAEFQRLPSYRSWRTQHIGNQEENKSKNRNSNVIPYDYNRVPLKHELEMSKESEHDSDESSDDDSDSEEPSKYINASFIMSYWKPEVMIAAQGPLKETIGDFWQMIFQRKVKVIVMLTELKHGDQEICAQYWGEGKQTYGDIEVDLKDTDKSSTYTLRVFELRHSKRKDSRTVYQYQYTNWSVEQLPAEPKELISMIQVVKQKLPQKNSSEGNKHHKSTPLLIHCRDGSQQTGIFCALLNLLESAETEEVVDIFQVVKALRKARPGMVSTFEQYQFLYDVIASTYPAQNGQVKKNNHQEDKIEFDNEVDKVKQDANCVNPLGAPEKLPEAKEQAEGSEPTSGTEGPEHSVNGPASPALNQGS
UniProt Q12913: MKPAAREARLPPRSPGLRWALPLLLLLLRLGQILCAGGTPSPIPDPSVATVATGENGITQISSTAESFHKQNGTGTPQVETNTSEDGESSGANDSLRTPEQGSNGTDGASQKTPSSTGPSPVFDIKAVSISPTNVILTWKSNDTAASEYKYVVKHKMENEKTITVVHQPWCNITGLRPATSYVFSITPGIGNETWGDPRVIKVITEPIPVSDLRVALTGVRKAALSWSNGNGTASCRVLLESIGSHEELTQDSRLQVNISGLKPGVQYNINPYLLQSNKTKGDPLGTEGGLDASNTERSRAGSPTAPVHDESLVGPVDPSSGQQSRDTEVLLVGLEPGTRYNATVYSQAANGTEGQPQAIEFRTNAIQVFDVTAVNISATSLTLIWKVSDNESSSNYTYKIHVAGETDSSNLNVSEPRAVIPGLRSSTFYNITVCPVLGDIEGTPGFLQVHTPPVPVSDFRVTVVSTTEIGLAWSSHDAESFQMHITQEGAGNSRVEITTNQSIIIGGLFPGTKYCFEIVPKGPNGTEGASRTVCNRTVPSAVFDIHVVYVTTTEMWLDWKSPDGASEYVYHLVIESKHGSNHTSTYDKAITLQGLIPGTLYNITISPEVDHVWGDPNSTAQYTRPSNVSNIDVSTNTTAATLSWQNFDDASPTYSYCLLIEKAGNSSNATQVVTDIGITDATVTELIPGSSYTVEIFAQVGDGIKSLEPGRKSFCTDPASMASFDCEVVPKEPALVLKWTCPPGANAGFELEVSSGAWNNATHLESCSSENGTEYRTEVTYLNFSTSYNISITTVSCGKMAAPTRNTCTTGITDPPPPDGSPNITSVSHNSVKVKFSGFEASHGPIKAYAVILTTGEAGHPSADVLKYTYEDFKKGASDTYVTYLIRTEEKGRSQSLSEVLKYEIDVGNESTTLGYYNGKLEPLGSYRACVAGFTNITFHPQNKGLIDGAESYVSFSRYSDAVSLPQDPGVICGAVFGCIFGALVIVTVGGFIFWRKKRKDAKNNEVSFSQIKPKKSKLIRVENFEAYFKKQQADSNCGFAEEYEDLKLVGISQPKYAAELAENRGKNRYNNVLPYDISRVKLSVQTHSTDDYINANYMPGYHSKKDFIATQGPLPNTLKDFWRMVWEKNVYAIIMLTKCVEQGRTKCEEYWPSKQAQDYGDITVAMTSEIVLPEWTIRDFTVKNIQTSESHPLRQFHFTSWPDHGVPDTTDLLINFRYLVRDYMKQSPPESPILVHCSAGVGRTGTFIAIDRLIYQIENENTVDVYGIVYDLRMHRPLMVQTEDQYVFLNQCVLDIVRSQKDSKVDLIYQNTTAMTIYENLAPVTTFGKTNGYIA
UniProt P26599: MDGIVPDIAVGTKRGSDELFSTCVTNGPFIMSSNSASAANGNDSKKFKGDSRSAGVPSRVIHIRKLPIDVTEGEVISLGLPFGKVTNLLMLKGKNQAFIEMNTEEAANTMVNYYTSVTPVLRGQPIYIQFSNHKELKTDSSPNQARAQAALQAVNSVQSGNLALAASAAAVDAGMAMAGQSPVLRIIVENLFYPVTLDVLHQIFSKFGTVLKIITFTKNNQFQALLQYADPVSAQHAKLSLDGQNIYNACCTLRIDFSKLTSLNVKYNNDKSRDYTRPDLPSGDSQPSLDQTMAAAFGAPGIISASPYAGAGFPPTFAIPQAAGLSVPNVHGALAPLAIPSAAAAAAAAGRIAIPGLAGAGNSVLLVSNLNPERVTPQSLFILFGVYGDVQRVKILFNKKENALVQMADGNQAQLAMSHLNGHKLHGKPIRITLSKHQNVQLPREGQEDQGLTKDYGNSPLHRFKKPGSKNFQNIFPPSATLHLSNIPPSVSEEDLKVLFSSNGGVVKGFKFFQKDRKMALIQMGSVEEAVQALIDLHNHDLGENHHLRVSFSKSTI
UniProt Q92530: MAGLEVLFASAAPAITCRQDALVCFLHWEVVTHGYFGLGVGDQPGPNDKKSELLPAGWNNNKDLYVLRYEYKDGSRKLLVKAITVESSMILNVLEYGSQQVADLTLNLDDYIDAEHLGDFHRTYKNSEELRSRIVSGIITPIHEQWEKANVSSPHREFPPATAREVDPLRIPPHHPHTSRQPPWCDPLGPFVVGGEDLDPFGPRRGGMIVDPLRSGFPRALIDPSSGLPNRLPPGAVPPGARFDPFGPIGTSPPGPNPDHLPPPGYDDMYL
UniProt P18031: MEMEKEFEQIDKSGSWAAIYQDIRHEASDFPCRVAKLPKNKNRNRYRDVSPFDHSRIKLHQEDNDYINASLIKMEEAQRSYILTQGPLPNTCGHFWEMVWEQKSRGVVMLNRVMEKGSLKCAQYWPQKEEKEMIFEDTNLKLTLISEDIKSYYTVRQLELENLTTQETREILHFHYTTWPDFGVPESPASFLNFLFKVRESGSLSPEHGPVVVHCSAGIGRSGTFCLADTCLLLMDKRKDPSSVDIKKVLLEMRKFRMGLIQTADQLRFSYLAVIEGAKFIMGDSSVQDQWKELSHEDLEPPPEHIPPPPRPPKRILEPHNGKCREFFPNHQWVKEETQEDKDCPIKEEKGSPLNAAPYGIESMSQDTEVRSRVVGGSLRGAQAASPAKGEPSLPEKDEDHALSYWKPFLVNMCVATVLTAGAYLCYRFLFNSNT
UniProt Q14997: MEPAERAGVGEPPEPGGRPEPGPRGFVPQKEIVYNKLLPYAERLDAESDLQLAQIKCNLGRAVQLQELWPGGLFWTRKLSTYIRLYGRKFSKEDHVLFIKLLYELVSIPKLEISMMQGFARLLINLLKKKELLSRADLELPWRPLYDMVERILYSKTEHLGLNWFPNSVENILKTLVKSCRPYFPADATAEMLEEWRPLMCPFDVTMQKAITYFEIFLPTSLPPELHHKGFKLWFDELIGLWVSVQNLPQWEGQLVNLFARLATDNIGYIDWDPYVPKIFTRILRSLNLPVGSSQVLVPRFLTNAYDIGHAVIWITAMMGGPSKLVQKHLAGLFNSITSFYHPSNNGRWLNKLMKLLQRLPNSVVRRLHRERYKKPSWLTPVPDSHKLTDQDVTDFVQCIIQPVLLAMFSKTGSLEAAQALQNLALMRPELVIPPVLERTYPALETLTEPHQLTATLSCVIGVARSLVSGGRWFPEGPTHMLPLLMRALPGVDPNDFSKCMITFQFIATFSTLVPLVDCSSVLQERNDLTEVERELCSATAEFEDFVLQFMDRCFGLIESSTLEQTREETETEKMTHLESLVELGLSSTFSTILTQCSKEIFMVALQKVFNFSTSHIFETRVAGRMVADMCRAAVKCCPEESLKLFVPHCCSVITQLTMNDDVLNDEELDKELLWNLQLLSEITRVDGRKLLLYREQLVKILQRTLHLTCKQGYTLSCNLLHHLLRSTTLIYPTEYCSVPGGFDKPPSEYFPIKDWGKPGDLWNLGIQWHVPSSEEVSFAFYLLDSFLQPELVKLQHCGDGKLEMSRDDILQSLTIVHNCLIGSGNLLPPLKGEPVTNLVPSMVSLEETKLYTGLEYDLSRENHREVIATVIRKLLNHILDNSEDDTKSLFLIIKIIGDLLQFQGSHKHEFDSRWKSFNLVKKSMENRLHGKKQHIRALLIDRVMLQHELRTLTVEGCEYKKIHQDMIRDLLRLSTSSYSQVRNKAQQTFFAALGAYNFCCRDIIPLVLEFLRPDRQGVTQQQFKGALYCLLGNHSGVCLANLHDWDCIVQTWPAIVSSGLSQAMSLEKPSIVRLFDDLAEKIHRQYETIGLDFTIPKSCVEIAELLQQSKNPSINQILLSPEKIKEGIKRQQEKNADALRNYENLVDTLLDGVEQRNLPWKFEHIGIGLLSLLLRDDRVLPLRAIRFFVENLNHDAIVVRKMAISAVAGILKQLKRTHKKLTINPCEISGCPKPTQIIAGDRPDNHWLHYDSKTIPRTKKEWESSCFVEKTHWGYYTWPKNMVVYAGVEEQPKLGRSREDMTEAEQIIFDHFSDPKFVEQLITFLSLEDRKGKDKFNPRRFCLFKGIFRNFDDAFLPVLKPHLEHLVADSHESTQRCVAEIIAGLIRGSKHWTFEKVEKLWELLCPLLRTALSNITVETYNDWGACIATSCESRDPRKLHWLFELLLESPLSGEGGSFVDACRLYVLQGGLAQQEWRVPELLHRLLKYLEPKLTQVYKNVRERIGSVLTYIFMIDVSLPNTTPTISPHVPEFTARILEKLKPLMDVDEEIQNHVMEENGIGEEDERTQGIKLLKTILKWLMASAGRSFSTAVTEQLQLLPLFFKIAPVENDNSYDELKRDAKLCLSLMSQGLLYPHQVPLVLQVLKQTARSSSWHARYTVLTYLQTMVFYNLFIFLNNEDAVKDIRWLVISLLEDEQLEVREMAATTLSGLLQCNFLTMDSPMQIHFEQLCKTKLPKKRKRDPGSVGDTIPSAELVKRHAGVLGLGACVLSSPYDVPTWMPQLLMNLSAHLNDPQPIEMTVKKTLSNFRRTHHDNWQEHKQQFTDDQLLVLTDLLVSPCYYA
UniProt Q05209: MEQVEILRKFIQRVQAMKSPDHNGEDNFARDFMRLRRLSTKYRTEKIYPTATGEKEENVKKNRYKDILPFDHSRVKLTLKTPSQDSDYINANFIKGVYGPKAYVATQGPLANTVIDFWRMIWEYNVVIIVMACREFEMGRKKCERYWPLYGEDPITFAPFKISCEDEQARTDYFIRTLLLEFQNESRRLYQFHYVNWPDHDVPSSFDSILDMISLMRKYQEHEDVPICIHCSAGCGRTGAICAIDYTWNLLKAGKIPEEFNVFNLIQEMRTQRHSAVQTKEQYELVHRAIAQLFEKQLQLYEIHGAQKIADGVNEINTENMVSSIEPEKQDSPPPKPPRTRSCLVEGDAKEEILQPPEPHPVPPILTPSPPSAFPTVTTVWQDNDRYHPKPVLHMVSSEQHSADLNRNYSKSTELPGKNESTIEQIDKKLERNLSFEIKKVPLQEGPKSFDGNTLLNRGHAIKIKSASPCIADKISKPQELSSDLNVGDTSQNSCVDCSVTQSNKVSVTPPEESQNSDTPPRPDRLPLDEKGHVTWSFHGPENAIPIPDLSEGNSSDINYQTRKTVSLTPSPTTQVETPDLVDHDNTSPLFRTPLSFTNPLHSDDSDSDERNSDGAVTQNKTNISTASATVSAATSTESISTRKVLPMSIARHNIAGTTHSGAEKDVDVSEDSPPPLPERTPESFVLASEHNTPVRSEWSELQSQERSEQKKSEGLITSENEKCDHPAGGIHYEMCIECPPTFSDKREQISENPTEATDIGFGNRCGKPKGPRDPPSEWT

| Target | probe-labelled cysteine peptide fold change |
| --- | --- |
| PTPN23_Q9H3S7_697_TQSTCQAR (UniProt Q9H3S7) | 0.0343 |
| PSME3_P61289_92_LDECEEAFQGTK (UniProt P61289) | -0.18 |
| PSMB5_P28074_161_GMGLSMGTMICGWDK (UniProt P28074) | 0.0365 |
| PSMD1_Q99460_633_TPEQCPSVVSLLSESYNPHVR (UniProt Q99460) | -0.088 |
| PSMB3_P49720_19_NCVAIAADR (UniProt P49720) | 0.0837 |
| PTPRC_P08575_1261_QDANCVNPLGAPEKLPEAK (UniProt P08575) | -0.245 |
| PSMA4_P25789_163_ATCIGNNSAAAVSMLK (UniProt P25789) | -0.0405 |
| PTPRC_P08575_853_VNAFSNFFSGPIVVHCSAGVGR (UniProt P08575) | -0.0548 |
| PSMD8_P48556_173_CYYFDYK (UniProt P48556) | 0.367 |
| PTCD3_Q96EY7_551_DKHPPELQVAFADCAADIK (UniProt Q96EY7) | -0.12 |
| PTPRJ_Q12913_1294_MHRPLMVQTEDQYVFLNQCVLDIVR (UniProt Q12913) | 0.123 |
| PTBP1_P26599_251_LSLDGQNIYNACCTLR (UniProt P26599) | 0.24 |
| PSMF1_Q92530_17_AGLEVLFASAAPAITCR (UniProt Q92530) | -0.234 |
| PSMC5_P62195_209_AVAHHTDCTFIR (UniProt P62195) | 0.11 |
| PSTPIP1_O43586_148_CRDADDAEQAFER (UniProt O43586) | 0.222 |
| PTPN1_P18031_226_SGTFCLADTCLLLMDK (UniProt P18031) | -0.261 |
| PTPN1_P18031_324_CREFFPNHQWVK (UniProt P18031) | -0.0639 |
| PSMD9_O00233_216_GLLGCNIIPLQR (UniProt O00233) | 0.265 |
| PTPRJ_Q12913_1039_QQADSNCGFAEEYEDLK (UniProt Q12913) | -0.0752 |

3 entries from above, as tab-separated lines.
Target	probe-labelled cysteine peptide fold change
PTPRJ_Q12913_1294_MHRPLMVQTEDQYVFLNQCVLDIVR (UniProt Q12913)	0.123
PTBP1_P26599_251_LSLDGQNIYNACCTLR (UniProt P26599)	0.24
PSMF1_Q92530_17_AGLEVLFASAAPAITCR (UniProt Q92530)	-0.234

Next part.

| Target | probe-labelled cysteine peptide fold change |
| --- | --- |
| PTER_Q96BW5_36_TLTHEHLAMTFDCCYCPPPPCQEAISK (UniProt Q96BW5) | 0.331 |
| PSMA4_P25789_107_YLLQYQEPIPCEQLVTALCDIK (UniProt P25789) | 0.151 |
| PSMC2_P35998_270_ACLIFFDEIDAIGGAR (UniProt P35998) | 0.0961 |
| PTRH2_Q9Y3E5_111_QWEYCGQPK (UniProt Q9Y3E5) | -0.0023 |
| PTPN11_Q06124_318_CNNSKPK (UniProt Q06124) | -0.379 |
| PTPRE_P23469_244_CHQYWPDQGCWTYGNIR (UniProt P23469) | 0.306 |
| PSME4_Q14997_958_TLTVEGCEYK (UniProt Q14997) | 0.0375 |
| PSME4_Q14997_718_QGYTLSCNLLHHLLR (UniProt Q14997) | 0.266 |
| PSMD12_O00232_109_MVQQCCTYVEEITDLPIK (UniProt O00232) | -0.00902 |
| PTPN7_P35236_324_ARGEVDILGIVCQLR (UniProt P35236) | 0.0622 |
| PSTPIP1_O43586_242_NALWVHSNQLSMQCVK (UniProt O43586) | 0.0662 |
| PTPN1_P18031_344_EETQEDKDCPIK (UniProt P18031) | -0.383 |
| PTPRC_P08575_434_DCLNLDK (UniProt P08575) | 0.0982 |
| PSMD4_P55036_58_SNPENNVGLITLANDCEVLTTLTPDTGR (UniProt P55036) | -0.155 |
| PTPN12_Q05209_242_TGAICAIDYTWNLLK (UniProt Q05209) | 0.124 |
| PSMA7_O14818_63+70_ICALDDNVCMAFAGLTADAR (UniProt O14818) | 0.151 |
| PTPN9_P43378_338_YGDVPCLDQTR (UniProt P43378) | -0.155 |
| PSMD1_Q99460_112_QCVENADLPEGEK (UniProt Q99460) | 0.00508 |
| PTPN12_Q05209_724_CDHPAGGIHYEMCIECPPTFSDK (UniProt Q05209) | -0.0675 |

From the supplement of paper PMC12067093, “Discovery and optimisation of a covalent ligand for TRIM25 and its application to targeted protein ubiquitination” (Chemical Science, 2025)
